Results are given in words; binding and its absence hold for the method and conditions named. In cells and extracts the contact can be indirect. Some binding calls cover weakened binding; strength is not graded here. For some assays here: Sequences can lack the tags named with a protein. Values belong to the molecule of their own block, whether it stands above or below them.
Columns and labels:
[1] = molecular target: T1, Barrier-to-autointegration factor (BAF) (Drosophila melanogaster (endogenous in S2 cells)) (UniProt Q9VLU0); experiment: co-IP; extracts of a stable S2 cell line expressing CENP-A^CID::YFP; IP with αBAF or αGFP antibodies, WB
T1 sequence: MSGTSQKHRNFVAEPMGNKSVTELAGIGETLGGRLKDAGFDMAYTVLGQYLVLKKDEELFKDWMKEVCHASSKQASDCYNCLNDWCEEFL

By UniProt entry, the sequences of proteins in these tests, tags left out.
UniProt Q9V6Q2: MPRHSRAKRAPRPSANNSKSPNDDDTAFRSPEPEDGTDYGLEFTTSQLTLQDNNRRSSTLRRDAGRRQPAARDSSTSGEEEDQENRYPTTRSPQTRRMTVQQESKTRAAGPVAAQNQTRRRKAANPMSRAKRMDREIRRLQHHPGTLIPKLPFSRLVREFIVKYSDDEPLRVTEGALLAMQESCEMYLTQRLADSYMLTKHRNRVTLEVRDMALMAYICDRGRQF

[2] = molecular target: CENP-A^CID::YFP fusion protein (Drosophila) (UniProt Q9V6Q2); experiment: as above
[3] = molecular target: T2, CENP-C (Drosophila melanogaster (endogenous in S2 cells)) (UniProt Q9VHP9); experiment: co-IP; S2 cell extracts (50 mM Tris-HCl pH 8, 5 mM EDTA, 0.5% NP-40, supplemented to 300 mM NaCl), overnight at 4 °C with αBAF or αCENP-C antibodies or preimmune serum, Protein A Sepharose, WB; also after DNAse I treatment of the extract; also from dsRNA^NHK1 cells and pMT-NHK1 cells overexpressing VRK1/NHK1
T2 sequence: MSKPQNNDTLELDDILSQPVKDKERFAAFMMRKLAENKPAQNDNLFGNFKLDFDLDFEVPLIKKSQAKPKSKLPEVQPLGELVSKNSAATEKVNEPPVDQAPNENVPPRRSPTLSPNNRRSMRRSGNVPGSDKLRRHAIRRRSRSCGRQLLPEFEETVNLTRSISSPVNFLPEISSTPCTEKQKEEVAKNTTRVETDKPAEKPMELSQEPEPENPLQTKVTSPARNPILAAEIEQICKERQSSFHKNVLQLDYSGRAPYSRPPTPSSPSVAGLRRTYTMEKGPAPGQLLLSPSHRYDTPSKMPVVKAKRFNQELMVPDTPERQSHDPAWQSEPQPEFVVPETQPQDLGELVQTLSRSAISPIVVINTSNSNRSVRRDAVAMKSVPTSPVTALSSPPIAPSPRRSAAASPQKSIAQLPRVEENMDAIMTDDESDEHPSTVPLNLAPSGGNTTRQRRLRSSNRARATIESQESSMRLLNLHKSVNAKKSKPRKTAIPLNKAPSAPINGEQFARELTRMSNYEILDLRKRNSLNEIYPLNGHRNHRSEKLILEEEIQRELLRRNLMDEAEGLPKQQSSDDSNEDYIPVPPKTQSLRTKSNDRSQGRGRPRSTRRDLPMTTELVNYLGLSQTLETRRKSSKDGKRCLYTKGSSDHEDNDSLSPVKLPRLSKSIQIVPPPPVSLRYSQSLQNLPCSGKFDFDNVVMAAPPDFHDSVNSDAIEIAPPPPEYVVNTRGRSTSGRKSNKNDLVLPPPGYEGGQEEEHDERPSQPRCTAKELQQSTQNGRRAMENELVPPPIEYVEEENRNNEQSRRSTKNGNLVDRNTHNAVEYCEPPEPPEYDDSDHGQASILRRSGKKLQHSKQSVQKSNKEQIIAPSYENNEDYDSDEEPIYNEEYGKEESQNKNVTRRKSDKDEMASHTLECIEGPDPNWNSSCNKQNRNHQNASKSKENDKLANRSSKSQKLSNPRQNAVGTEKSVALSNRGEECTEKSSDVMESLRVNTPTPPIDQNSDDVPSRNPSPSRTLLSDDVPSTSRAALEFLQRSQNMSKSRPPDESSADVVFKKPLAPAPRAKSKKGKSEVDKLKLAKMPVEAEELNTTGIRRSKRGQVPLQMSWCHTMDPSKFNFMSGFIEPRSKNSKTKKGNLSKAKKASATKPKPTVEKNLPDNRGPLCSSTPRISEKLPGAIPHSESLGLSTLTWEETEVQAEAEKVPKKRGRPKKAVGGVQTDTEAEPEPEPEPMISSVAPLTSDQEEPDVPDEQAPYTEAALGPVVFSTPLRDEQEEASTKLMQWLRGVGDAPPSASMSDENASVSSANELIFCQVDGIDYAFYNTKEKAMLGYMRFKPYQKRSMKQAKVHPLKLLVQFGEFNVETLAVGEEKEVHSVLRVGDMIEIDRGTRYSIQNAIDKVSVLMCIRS

[4] = molecular target: T1, Barrier-to-autointegration factor (BAF) (Drosophila melanogaster (endogenous in S2 cells)); experiment: as above
[5] = molecular target: T1, Barrier-to-autointegration factor (BAF) (Drosophila melanogaster (endogenous in S2 cells)); experiment: co-IP; extracts of stable S2 lines expressing GFP::CENP-C^R or GFP::CENP-CΔFIM^R, control dsRNA^LacZ or depleted of endogenous CENP-C (dsRNA^CENP-C); IP with αBAF antibodies, mock with preimmune serum, WB with αGFP and αBAF

- binding [1]: no binding
Molecule: CENP-A^CID::YFP fusion protein (from UniProt Q9V6Q2 1-225)

- binding [2]: no binding
- binding [3]: binds
B1: Barrier-to-autointegration factor (BAF) (protein, UniProt Q9VLU0 1-90)
chain: MSGTSQKHRNFVAEPMGNKSVTELAGIGETLGGRLKDAGFDMAYTVLGQYLVLKKDEELFKDWMKEVCHASSKQASDCYNCLNDWCEEFL

- binding [4]: binds
B2: CENP-C (protein, UniProt Q9VHP9 1-1411)
chain: MSKPQNNDTLELDDILSQPVKDKERFAAFMMRKLAENKPAQNDNLFGNFKLDFDLDFEVPLIKKSQAKPKSKLPEVQPLGELVSKNSAATEKVNEPPVDQAPNENVPPRRSPTLSPNNRRSMRRSGNVPGSDKLRRHAIRRRSRSCGRQLLPEFEETVNLTRSISSPVNFLPEISSTPCTEKQKEEVAKNTTRVETDKPAEKPMELSQEPEPENPLQTKVTSPARNPILAAEIEQICKERQSSFHKNVLQLDYSGRAPYSRPPTPSSPSVAGLRRTYTMEKGPAPGQLLLSPSHRYDTPSKMPVVKAKRFNQELMVPDTPERQSHDPAWQSEPQPEFVVPETQPQDLGELVQTLSRSAISPIVVINTSNSNRSVRRDAVAMKSVPTSPVTALSSPPIAPSPRRSAAASPQKSIAQLPRVEENMDAIMTDDESDEHPSTVPLNLAPSGGNTTRQRRLRSSNRARATIESQESSMRLLNLHKSVNAKKSKPRKTAIPLNKAPSAPINGEQFARELTRMSNYEILDLRKRNSLNEIYPLNGHRNHRSEKLILEEEIQRELLRRNLMDEAEGLPKQQSSDDSNEDYIPVPPKTQSLRTKSNDRSQGRGRPRSTRRDLPMTTELVNYLGLSQTLETRRKSSKDGKRCLYTKGSSDHEDNDSLSPVKLPRLSKSIQIVPPPPVSLRYSQSLQNLPCSGKFDFDNVVMAAPPDFHDSVNSDAIEIAPPPPEYVVNTRGRSTSGRKSNKNDLVLPPPGYEGGQEEEHDERPSQPRCTAKELQQSTQNGRRAMENELVPPPIEYVEEENRNNEQSRRSTKNGNLVDRNTHNAVEYCEPPEPPEYDDSDHGQASILRRSGKKLQHSKQSVQKSNKEQIIAPSYENNEDYDSDEEPIYNEEYGKEESQNKNVTRRKSDKDEMASHTLECIEGPDPNWNSSCNKQNRNHQNASKSKENDKLANRSSKSQKLSNPRQNAVGTEKSVALSNRGEECTEKSSDVMESLRVNTPTPPIDQNSDDVPSRNPSPSRTLLSDDVPSTSRAALEFLQRSQNMSKSRPPDESSADVVFKKPLAPAPRAKSKKGKSEVDKLKLAKMPVEAEELNTTGIRRSKRGQVPLQMSWCHTMDPSKFNFMSGFIEPRSKNSKTKKGNLSKAKKASATKPKPTVEKNLPDNRGPLCSSTPRISEKLPGAIPHSESLGLSTLTWEETEVQAEAEKVPKKRGRPKKAVGGVQTDTEAEPEPEPEPMISSVAPLTSDQEEPDVPDEQAPYTEAALGPVVFSTPLRDEQEEASTKLMQWLRGVGDAPPSASMSDENASVSSANELIFCQVDGIDYAFYNTKEKAMLGYMRFKPYQKRSMKQAKVHPLKLLVQFGEFNVETLAVGEEKEVHSVLRVGDMIEIDRGTRYSIQNAIDKVSVLMCIRS

- binding [5]: binds
B3: GFP::CENP-C^R (protein, UniProt Q9VHP9 1-1411)
chain: MSKPQNNDTLELDDILSQPVKDKERFAAFMMRKLAENKPAQNDNLFGNFKLDFDLDFEVPLIKKSQAKPKSKLPEVQPLGELVSKNSAATEKVNEPPVDQAPNENVPPRRSPTLSPNNRRSMRRSGNVPGSDKLRRHAIRRRSRSCGRQLLPEFEETVNLTRSISSPVNFLPEISSTPCTEKQKEEVAKNTTRVETDKPAEKPMELSQEPEPENPLQTKVTSPARNPILAAEIEQICKERQSSFHKNVLQLDYSGRAPYSRPPTPSSPSVAGLRRTYTMEKGPAPGQLLLSPSHRYDTPSKMPVVKAKRFNQELMVPDTPERQSHDPAWQSEPQPEFVVPETQPQDLGELVQTLSRSAISPIVVINTSNSNRSVRRDAVAMKSVPTSPVTALSSPPIAPSPRRSAAASPQKSIAQLPRVEENMDAIMTDDESDEHPSTVPLNLAPSGGNTTRQRRLRSSNRARATIESQESSMRLLNLHKSVNAKKSKPRKTAIPLNKAPSAPINGEQFARELTRMSNYEILDLRKRNSLNEIYPLNGHRNHRSEKLILEEEIQRELLRRNLMDEAEGLPKQQSSDDSNEDYIPVPPKTQSLRTKSNDRSQGRGRPRSTRRDLPMTTELVNYLGLSQTLETRRKSSKDGKRCLYTKGSSDHEDNDSLSPVKLPRLSKSIQIVPPPPVSLRYSQSLQNLPCSGKFDFDNVVMAAPPDFHDSVNSDAIEIAPPPPEYVVNTRGRSTSGRKSNKNDLVLPPPGYEGGQEEEHDERPSQPRCTAKELQQSTQNGRRAMENELVPPPIEYVEEENRNNEQSRRSTKNGNLVDRNTHNAVEYCEPPEPPEYDDSDHGQASILRRSGKKLQHSKQSVQKSNKEQIIAPSYENNEDYDSDEEPIYNEEYGKEESQNKNVTRRKSDKDEMASHTLECIEGPDPNWNSSCNKQNRNHQNASKSKENDKLANRSSKSQKLSNPRQNAVGTEKSVALSNRGEECTEKSSDVMESLRVNTPTPPIDQNSDDVPSRNPSPSRTLLSDDVPSTSRAALEFLQRSQNMSKSRPPDESSADVVFKKPLAPAPRAKSKKGKSEVDKLKLAKMPVEAEELNTTGIRRSKRGQVPLQMSWCHTMDPSKFNFMSGFIEPRSKNSKTKKGNLSKAKKASATKPKPTVEKNLPDNRGPLCSSTPRISEKLPGAIPHSESLGLSTLTWEETEVQAEAEKVPKKRGRPKKAVGGVQTDTEAEPEPEPEPMISSVAPLTSDQEEPDVPDEQAPYTEAALGPVVFSTPLRDEQEEASTKLMQWLRGVGDAPPSASMSDENASVSSANELIFCQVDGIDYAFYNTKEKAMLGYMRFKPYQKRSMKQAKVHPLKLLVQFGEFNVETLAVGEEKEVHSVLRVGDMIEIDRGTRYSIQNAIDKVSVLMCIRS
